These are yes or no findings as the source states them, for the method shown. In cells and extracts the contact can be indirect. Some binding calls cover weakened binding; strength is not graded here.
Molecular target: full-length GFP-tagged SH3KBP1 (UniProt Q8R550)
Assay: co-IP

The chains behind the UniProt entries cited, without tags or fusion partners.
UniProt Q8R550: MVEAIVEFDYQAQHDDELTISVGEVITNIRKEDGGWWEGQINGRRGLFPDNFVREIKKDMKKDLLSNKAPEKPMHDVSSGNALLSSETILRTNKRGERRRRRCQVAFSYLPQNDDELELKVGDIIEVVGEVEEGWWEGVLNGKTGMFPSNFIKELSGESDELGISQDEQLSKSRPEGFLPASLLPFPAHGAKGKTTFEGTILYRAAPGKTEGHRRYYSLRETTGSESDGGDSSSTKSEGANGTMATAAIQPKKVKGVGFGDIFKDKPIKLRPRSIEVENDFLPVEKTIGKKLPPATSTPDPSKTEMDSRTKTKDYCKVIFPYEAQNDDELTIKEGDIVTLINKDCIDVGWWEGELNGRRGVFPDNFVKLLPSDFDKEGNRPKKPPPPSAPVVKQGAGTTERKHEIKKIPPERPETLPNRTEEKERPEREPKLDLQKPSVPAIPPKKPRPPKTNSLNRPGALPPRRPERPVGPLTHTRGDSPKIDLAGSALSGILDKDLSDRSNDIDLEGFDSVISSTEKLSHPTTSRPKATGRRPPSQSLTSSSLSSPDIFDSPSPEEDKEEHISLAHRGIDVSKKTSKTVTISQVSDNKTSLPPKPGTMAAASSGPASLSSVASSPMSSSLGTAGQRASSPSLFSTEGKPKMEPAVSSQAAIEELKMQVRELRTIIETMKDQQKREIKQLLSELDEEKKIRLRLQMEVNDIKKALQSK

binding: binds
B1: Calnexin (protein, UniProt P35564 21-591)
chain: HDGHDDDAIDIEDDLDDVIEEVEDSKSKSDASTPPSPKVTYKAPVPTGEVYFADSFDRGSLSGWILSKAKKDDTDDEIAKYDGKWEVDEMKETKLPGDKGLVLMSRAKHHAISAKLNKPFLFDTKPLIVQYEVNFQNGIECGGAYVKLLSKTAELSLDQFHDKTPYTIMFGPDKCGEDYKLHFIFRHKNPKTGVYEEKHAKRPDADLKTYFTDKKTHLYTLILNPDNSFEILVDQSVVNSGNLLNDMTPPVNPSREIEDPEDRKPEDWDERPKIADPDAVKPDDWDEDAPSKIPDEEATKPEGWLDDEPEYIPDPDAEKPEDWDEDMDGEWEAPQIANPKCESAPGCGVWQRPMIDNPNYKGKWKPPMIDNPNYQGIWKPRKIPNPDFFEDLEPFKMTPFSAIGLELWSMTSDIFFDNFIISGDRRVVDDWANDGWGLKKAADGAAEPGVVLQMLEAAEERPWLWVVYILTVALPVFLVILFCCSGKKQSNAMEYKKTDAPQPDVKDEEGKEEEKNKRDEEEEEEKLEEKQKSDAEEDGVTGSQDEEDSKPKAEEDEILNRSPRNRKPRRE
